Reference: paper PMC6824466
These are yes or no findings as the source states them, for the method shown. In cells and extracts the contact can be indirect. Some binding calls cover weakened binding; strength is not graded here.

By UniProt entry, the sequences of proteins in these tests, tags left out. Where a name states a change or a piece, a line headed by the entry shows the natural chain unless it says otherwise. Chains listed by the source or under a name are the forms on record and can include a tag or linker.
UniProt P97471: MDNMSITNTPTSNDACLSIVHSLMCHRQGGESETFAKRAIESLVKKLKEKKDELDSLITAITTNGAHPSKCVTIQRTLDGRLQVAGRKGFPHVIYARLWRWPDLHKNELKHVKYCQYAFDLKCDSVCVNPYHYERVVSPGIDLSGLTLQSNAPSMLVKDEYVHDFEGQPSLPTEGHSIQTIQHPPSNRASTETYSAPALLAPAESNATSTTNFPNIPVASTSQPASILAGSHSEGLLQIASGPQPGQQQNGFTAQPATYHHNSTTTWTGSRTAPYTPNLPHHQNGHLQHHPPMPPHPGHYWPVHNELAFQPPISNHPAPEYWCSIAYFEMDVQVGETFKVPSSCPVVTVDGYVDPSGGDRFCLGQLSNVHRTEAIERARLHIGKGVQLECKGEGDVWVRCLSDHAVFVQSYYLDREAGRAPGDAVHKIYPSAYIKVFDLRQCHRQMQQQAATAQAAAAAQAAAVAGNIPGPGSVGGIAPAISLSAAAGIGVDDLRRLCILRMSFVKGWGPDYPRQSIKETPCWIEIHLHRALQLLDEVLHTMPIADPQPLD
UniProt Q8BUN5: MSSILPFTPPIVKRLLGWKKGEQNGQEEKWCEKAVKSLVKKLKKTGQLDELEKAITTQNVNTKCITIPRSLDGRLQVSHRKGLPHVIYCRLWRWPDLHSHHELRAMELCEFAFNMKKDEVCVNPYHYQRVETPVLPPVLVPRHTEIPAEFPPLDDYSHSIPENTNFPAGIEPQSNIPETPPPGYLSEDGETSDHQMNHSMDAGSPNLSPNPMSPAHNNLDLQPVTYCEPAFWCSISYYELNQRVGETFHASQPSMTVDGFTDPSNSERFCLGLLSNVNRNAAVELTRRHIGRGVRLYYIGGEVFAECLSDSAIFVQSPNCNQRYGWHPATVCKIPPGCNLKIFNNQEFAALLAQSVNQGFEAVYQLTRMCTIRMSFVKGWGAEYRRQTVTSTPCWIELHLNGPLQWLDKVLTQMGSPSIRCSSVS
UniProt Q62432: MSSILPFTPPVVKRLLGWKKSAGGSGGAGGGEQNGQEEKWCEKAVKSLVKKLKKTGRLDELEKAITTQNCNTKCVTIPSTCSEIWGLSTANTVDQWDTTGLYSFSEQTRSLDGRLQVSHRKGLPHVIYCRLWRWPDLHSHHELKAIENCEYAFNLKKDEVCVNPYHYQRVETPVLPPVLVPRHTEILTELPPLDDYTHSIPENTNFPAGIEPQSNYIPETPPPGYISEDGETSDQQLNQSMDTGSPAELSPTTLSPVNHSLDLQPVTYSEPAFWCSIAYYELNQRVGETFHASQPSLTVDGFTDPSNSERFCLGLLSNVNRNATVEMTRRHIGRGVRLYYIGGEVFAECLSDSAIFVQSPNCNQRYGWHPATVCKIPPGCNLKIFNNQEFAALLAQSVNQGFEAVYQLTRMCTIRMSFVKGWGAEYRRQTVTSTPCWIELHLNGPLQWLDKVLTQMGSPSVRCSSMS
SMAD2β (expressed from the endogenous Smad2 locus of S2ΔE3 mouse embryonic stem cells) (Q62432-2, form named): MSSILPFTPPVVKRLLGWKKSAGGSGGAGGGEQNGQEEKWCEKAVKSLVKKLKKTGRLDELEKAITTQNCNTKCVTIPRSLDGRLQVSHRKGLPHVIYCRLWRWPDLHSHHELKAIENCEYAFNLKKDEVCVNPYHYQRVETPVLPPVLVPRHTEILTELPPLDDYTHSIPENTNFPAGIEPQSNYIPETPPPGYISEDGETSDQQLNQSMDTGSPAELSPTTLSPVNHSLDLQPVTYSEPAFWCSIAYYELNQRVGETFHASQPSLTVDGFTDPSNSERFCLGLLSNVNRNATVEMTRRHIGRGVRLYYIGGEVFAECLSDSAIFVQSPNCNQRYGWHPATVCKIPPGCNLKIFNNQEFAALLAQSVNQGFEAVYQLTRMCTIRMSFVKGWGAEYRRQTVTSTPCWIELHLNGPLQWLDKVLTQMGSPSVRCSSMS

Assays:
[1] = target: SMAD4 (endogenous, mouse embryonic stem cells) (mouse (endogenous in ES-E14TG2a.4 mESCs)) (UniProt P97471); assay: co-IP; wild-type and S2ΔE3 mESCs incubated with SB for 6 h, then 2 h with SB or the indicated concentrations of Activin; anti-SMAD4 immunoprecipitates from whole-cell lysate blotted with anti-SMAD2/2β or anti-SMAD4
[2] = target: SMAD3 (endogenous, mouse embryonic stem cells) (mouse (endogenous in ES-E14TG2a.4 mESCs)) (UniProt Q8BUN5); assay: co-IP; mESCs incubated with Activin A for 1.5 h, fractionated into nuclear and cytosolic fractions; anti-SMAD2 and anti-SMAD3 immunoprecipitates blotted with anti-SMAD4 and anti-SMAD2/3 (Nuclear Complex Co-IP Kit)
[3] = target: SMAD2 (endogenous, mouse embryonic stem cells) (mouse (endogenous in ES-E14TG2a.4 mESCs)) (UniProt Q62432); assay: as above
[4] = target: SMAD3 (endogenous, mouse embryonic stem cells) (mouse (endogenous in ES-E14TG2a.4 mESCs)) (UniProt Q8BUN5); assay: condition: only cells treated with the Nodal/Activin receptor inhibitor SB431542 (SB) for 6 h; co-IP; mESCs incubated with SB431542 (SB) for 6 h, fractionated into nuclear and cytosolic fractions; anti-SMAD2 and anti-SMAD3 immunoprecipitates blotted with anti-SMAD4 and anti-SMAD2/3
[5] = target: SMAD2 (endogenous, mouse embryonic stem cells) (mouse (endogenous in ES-E14TG2a.4 mESCs)) (UniProt Q62432); assay: as above

SMAD2 (endogenous, mouse embryonic stem cells) (from UniProt Q62432 1-467)
binding [1]: binds

SMAD2β (expressed from the endogenous Smad2 locus of S2ΔE3 mouse embryonic stem cells) (from UniProt Q62432-2 1-437)
binding [1]: binds

SMAD4 (endogenous, mouse embryonic stem cells) (from UniProt P97471 1-551)
binding [2]: binds weakly | binding [3]: binds | binding [4]: no binding | binding [5]: no binding
